## Cell number after 72 h of treatment

Drug key:
GSK0660, 5 µM: COC(=O)c1sccc1S(=O)(=O)Nc1ccc(Nc2ccccc2)cc1OC
GW2580, 5 µM: COc1ccc(COc2ccc(Cc3cnc(N)nc3N)cc2OC)cc1
GW9662, 10 µM: O=C(Nc1ccccc1)c1cc([N+](=O)[O-])ccc1Cl
temozolomide, 10 µM: Cn1nnc2c(C(N)=O)ncn2c1=O
stibogluconate, 10 µM: O=C(O)[C@@H]1[O][Sb](=[O])([O][Sb]2(=[O])[O][C@H]([C@H](O)CO)[C@H](O)[C@H](C(=O)O)[O]2)[O][C@H]([C@H](O)CO)[C@@H]1O (some centres undefined)
PF-562271, 0.4 µM: CN(c1ncccc1CNc1nc(Nc2ccc3c(c2)CC(=O)N3)ncc1C(F)(F)F)S(C)(=O)=O
nutlin-3, 0.5 µM: COc1ccc(C2=N[C@@H](c3ccc(Cl)cc3)[C@@H](c3ccc(Cl)cc3)N2C(=O)N2CCNC(=O)C2)c(OC(C)C)c1
BMS-536924, 1 µM: Cc1cc(N2CCOCC2)cc2[nH]c(-c3c(NC[C@@H](O)c4cccc(Cl)c4)cc[nH]c3=O)nc12
STA-4783, 0.03 µM: CN(NC(=O)CC(=O)NN(C)C(=S)c1ccccc1)C(=S)c1ccccc1
IMD-0354, 0.08 µM: O=C(Nc1cc(C(F)(F)F)cc(C(F)(F)F)c1)c1cc(Cl)ccc1O
KU-0063794, 0.1 µM: COc1ccc(-c2ccc3c(N4CCOCC4)nc(N4C[C@@H](C)O[C@@H](C)C4)nc3n2)cc1CO
vismodegib, 5 µM: CS(=O)(=O)c1ccc(C(=O)Nc2ccc(Cl)c(-c3ccccn3)c2)c(Cl)c1
Src-I1, 10 µM: COc1cc2ncnc(Nc3ccc(Oc4ccccc4)cc3)c2cc1OC
AS-252424, 5 µM: O=C1NC(=O)/C(=C/c2ccc(-c3ccc(F)cc3O)o2)S1
PF-04217903, 5 µM: OCCn1cc(-c2cnc3nnn(Cc4ccc5ncccc5c4)c3n2)cn1
PLX4720, 0.4 µM: CCCS(=O)(=O)Nc1ccc(F)c(C(=O)c2c[nH]c3ncc(Cl)cc23)c1F
MK-2206, 2 µM: NC1(c2ccc(-c3nc4ccn5c(=O)[nH]nc5c4cc3-c3ccccc3)cc2)CCC1
GW441756, 2 µM: Cn1cc(/C=C2\C(=O)Nc3cccnc32)c2ccccc21
embelin, 6 µM: CCCCCCCCCCCC1=C(O)C(=O)C=C(O)C1=O
SU6656, 2 µM: CN(C)S(=O)(=O)c1ccc2c(c1)/C(=C/c1cc3c([nH]1)CCCC3)C(=O)N2

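Human melanoma cell lines in 1,536-well plates were treated with a pair of drugs for 72 h, then fixed, stained and imaged. Each value is the count of nuclei relative to DMSO-treated wells, in %, so that 100 equals the control. Concentrations were fixed for each drug; these are the higher of two levels. These are primary screening values without error estimates.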
Only some of the drugs and lines screened are listed, without regard to their results.

Combination: GW2580 and GW9662
WM3619: 51.7
WM451Lu: 58.5
COLO 792: 93.8

Combination: temozolomide and BMS-536924
WM3619: 89.3
WM451Lu: 94.6
COLO 792: 53.0

Combination: GW9662 and temozolomide
WM3619: 45.0
WM451Lu: 83.8
COLO 792: 93.6

Combination: IMD-0354 and GW9662
WM3619: 69.6
WM451Lu: 110
COLO 792: 119

Combination: PF-562271 and AS-252424
WM3619: 77.8
WM451Lu: 72.6
COLO 792: 82.0

Combination: PF-04217903 and IMD-0354
WM3619: 113
WM451Lu: 84.9
COLO 792: 84.1

Combination: nutlin-3 and PLX4720
WM3619: 60.4
WM451Lu: 54.7
COLO 792: 105

Combination: IMD-0354 and KU-0063794
WM3619: 67.1
WM451Lu: 82.2
COLO 792: 98.4

Combination: PF-562271 and Src-I1
WM3619: 64.9
WM451Lu: 65.8
COLO 792: 56.4

Combination: stibogluconate and temozolomide
WM3619: 74.6
WM451Lu: 121
COLO 792: 93.3

Combination: Src-I1 and temozolomide
WM3619: 92.6
WM451Lu: 79.7
COLO 792: 58.9

Combination: STA-4783 and GW9662
WM3619: 8.5
WM451Lu: 75.5
COLO 792: 15.0

Combination: BMS-536924 and SU6656
WM3619: 96.6
WM451Lu: 57.4
COLO 792: 31.5

Combination: IMD-0354 and GSK0660
WM3619: 93.9
WM451Lu: 88.2
COLO 792: 132

Combination: PF-562271 and embelin
WM3619: 73.3
WM451Lu: 72.0
COLO 792: 67.2

Combination: BMS-536924 and GW2580
WM3619: 72.3
WM451Lu: 80.3
COLO 792: 62.3

Combination: MK-2206 and GW9662
WM3619: 50.0
WM451Lu: 81.7
COLO 792: 48.7

Combination: PF-562271 and KU-0063794
WM3619: 85.7
WM451Lu: 85.6
COLO 792: 78.1

Combination: nutlin-3 and stibogluconate
WM3619: 73.3
WM451Lu: 97.7
COLO 792: 72.2

Combination: AS-252424 and GW9662
WM3619: 48.6
WM451Lu: 75.0
COLO 792: 76.8

Combination: stibogluconate and vismodegib
WM3619: 103
WM451Lu: 83.0
COLO 792: 113

Combination: GW2580 and MK-2206
WM3619: 55.8
WM451Lu: 82.8
COLO 792: 68.0

Combination: PF-04217903 and temozolomide
WM3619: 89.3
WM451Lu: 97.6
COLO 792: 81.6

Combination: temozolomide and nutlin-3
WM3619: 67.9
WM451Lu: 70.8
COLO 792: 66.8

Combination: GW9662 and vismodegib
WM3619: 48.1
WM451Lu: 76.0
COLO 792: 123

Combination: IMD-0354 and vismodegib
WM3619: 92.2
WM451Lu: 116
COLO 792: 81.3

Combination: STA-4783 and stibogluconate
WM3619: 7.8
WM451Lu: 70.5
COLO 792: 35.0

Combination: IMD-0354 and temozolomide
WM3619: 90.8
WM451Lu: 93.6
COLO 792: 87.1

Combination: PF-562271 and GSK0660
WM3619: 78.3
WM451Lu: 61.9
COLO 792: 57.5

Combination: BMS-536924 and GW441756
WM3619: 93.9
WM451Lu: 77.7
COLO 792: 73.6

Combination: AS-252424 and PLX4720
WM3619: 78.9
WM451Lu: 66.6
COLO 792: 75.8

Combination: IMD-0354 and SU6656
WM3619: 115
WM451Lu: 92.6
COLO 792: 52.8

Combination: GW441756 and stibogluconate
WM3619: 117
WM451Lu: 109
COLO 792: 80.1

Combination: BMS-536924 and AS-252424
WM3619: 80.0
WM451Lu: 75.1
COLO 792: 47.7

Combination: IMD-0354 and AS-252424
WM3619: 85.5
WM451Lu: 98.4
COLO 792: 103

Combination: GW9662 and GSK0660
WM3619: 41.8
WM451Lu: 90.2
COLO 792: 103

Combination: IMD-0354 and embelin
WM3619: 69.9
WM451Lu: 90.4
COLO 792: 74.5

From a melanoma drug combination screen (doi:10.1371/journal.pone.0140310); values rounded.